Data reported in the supplement of paper PMC10849652.
This is one part of the list. Residues, ends and D or L forms follow the SMILES beside them. *: point of attachment. Cbz = O=C(OCc1ccccc1)*

The chains behind the UniProt entries cited, without tags or fusion partners. Where a name states a change or a piece, a line headed by the entry shows the natural chain unless it says otherwise.
UniProt Q9H7B2: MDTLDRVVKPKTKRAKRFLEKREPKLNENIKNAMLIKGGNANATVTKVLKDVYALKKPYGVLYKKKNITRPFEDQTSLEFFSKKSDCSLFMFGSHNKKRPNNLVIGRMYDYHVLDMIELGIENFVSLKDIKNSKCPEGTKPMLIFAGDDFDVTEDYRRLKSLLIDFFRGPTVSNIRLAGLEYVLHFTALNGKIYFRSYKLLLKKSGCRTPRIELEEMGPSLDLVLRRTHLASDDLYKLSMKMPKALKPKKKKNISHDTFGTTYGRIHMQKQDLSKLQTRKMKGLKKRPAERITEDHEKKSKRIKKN
UniProt Q8IXW5, whole entry, looked up: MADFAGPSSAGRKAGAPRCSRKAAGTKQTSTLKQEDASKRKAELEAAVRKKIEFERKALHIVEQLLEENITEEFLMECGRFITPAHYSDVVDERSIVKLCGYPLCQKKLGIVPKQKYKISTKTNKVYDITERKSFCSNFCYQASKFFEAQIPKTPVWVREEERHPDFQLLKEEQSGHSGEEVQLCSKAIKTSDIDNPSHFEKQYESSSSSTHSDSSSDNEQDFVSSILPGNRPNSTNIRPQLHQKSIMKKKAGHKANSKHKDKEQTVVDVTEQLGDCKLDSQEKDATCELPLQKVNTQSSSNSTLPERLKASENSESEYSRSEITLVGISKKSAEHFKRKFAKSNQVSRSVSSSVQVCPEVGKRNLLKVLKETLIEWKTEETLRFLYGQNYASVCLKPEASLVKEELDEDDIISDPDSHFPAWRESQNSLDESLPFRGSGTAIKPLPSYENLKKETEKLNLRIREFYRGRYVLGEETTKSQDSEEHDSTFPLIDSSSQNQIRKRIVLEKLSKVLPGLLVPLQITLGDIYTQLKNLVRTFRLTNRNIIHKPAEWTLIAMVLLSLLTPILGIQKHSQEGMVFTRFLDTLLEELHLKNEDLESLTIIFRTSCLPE
UniProt Q9UBS0: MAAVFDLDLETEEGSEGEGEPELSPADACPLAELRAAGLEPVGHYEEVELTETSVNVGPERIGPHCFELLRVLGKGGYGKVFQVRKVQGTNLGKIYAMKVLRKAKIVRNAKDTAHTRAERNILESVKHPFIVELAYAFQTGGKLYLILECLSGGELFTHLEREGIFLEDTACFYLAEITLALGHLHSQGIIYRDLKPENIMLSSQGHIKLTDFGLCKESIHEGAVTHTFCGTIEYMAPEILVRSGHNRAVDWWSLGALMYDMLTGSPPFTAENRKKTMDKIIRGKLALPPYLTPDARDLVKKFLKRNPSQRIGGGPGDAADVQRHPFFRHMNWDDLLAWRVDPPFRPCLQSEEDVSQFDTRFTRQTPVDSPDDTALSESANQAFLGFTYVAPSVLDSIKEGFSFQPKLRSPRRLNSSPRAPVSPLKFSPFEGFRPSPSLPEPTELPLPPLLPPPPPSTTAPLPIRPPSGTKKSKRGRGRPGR
UniProt P62070: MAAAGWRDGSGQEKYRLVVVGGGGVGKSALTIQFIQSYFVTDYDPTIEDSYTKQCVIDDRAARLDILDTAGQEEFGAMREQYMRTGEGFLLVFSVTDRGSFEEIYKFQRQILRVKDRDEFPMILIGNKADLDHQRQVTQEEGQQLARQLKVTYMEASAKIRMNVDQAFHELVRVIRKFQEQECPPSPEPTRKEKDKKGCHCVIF
UniProt Q15418, whole entry, looked up: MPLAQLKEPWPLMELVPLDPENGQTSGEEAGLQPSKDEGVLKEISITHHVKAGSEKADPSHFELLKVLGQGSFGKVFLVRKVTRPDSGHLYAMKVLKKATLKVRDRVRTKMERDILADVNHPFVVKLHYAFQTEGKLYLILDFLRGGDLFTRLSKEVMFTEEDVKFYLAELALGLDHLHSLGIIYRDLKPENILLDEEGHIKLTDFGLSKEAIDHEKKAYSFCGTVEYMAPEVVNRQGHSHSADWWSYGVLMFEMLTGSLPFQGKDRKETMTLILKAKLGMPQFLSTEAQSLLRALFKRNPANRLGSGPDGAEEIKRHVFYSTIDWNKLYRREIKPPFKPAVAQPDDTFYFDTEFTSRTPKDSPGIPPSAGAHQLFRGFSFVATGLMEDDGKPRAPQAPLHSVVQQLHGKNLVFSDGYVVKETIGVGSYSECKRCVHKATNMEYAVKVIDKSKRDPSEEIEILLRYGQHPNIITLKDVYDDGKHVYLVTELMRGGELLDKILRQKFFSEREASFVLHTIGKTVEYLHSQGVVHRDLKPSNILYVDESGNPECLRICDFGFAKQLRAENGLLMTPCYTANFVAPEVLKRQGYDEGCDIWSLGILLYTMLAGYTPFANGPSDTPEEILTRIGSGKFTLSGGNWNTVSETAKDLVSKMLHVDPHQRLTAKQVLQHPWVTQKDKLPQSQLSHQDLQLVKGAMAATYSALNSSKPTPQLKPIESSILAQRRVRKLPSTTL
UniProt P51812, whole entry, looked up: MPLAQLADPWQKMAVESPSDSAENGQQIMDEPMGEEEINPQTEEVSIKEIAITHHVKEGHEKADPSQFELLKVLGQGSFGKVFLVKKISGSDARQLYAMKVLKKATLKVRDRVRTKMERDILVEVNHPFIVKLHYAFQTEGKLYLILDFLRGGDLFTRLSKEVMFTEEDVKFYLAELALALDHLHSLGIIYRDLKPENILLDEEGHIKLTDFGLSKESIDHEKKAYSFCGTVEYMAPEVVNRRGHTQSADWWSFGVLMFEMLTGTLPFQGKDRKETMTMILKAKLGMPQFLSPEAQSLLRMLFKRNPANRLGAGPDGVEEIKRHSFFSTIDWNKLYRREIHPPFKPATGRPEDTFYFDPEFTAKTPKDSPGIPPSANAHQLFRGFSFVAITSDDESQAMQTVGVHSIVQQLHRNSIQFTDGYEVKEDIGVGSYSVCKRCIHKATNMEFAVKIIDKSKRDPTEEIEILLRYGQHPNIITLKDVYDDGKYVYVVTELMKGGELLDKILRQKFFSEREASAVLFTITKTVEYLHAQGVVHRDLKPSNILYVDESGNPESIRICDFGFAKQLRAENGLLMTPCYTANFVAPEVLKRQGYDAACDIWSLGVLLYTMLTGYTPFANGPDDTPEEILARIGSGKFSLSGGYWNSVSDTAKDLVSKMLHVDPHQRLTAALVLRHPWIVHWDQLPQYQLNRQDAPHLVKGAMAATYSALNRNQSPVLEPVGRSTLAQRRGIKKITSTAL
UniProt P56182: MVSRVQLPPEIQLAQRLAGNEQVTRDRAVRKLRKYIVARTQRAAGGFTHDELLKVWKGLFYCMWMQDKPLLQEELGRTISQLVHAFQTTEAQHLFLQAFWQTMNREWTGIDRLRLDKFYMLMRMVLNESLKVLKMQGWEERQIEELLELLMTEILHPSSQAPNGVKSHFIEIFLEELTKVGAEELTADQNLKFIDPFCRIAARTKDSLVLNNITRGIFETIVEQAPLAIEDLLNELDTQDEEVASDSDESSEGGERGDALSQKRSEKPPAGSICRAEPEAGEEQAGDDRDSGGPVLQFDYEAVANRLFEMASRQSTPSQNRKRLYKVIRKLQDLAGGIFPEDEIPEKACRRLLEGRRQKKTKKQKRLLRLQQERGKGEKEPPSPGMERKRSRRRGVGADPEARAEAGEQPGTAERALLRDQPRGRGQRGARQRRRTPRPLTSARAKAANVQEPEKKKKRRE
UniProt Q9H4P4: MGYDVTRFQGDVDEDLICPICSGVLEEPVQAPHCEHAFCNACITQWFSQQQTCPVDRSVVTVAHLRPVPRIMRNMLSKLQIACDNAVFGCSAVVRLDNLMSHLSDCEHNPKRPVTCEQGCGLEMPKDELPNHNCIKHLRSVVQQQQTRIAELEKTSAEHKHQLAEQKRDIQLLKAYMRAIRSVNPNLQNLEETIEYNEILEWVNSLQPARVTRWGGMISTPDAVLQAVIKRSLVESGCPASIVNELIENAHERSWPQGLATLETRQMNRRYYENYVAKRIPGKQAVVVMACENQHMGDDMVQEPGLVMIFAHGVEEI
UniProt Q9NYV6: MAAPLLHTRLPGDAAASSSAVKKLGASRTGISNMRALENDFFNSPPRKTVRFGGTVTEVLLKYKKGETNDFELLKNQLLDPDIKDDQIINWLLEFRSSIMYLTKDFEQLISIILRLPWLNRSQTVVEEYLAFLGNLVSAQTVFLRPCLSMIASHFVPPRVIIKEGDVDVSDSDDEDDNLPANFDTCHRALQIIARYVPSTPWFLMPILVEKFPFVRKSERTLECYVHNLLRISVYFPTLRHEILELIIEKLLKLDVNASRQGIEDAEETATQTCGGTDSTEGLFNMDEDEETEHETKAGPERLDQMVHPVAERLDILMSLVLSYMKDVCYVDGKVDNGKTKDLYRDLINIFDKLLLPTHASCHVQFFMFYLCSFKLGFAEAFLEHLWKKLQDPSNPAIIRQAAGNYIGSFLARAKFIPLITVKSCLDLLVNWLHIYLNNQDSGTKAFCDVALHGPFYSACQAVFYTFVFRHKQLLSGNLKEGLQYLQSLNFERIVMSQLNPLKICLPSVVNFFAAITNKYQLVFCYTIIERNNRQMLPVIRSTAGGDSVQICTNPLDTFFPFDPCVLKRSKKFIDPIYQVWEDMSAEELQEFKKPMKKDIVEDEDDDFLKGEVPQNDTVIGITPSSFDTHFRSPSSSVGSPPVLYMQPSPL
UniProt P78317: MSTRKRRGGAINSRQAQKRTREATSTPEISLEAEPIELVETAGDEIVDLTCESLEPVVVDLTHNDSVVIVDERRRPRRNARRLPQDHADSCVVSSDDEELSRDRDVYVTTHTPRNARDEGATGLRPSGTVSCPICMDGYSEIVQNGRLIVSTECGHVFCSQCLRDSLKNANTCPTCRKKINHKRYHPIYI
UniProt P27694, whole entry, looked up: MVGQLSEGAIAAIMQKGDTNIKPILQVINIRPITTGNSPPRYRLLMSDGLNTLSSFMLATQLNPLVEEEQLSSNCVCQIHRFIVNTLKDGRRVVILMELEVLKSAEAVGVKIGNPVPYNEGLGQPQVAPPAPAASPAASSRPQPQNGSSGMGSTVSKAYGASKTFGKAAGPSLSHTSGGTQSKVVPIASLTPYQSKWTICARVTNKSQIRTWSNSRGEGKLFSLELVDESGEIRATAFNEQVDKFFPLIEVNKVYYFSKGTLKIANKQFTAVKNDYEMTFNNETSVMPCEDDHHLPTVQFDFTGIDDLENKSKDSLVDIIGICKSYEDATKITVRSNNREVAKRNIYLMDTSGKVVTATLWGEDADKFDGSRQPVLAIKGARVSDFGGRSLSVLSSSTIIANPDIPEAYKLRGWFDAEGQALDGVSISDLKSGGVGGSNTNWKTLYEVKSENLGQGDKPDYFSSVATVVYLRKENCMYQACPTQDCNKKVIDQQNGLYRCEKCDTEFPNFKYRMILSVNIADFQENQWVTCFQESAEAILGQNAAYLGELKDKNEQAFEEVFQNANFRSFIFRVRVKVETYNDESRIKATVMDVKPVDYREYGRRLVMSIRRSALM
UniProt Q96EP0: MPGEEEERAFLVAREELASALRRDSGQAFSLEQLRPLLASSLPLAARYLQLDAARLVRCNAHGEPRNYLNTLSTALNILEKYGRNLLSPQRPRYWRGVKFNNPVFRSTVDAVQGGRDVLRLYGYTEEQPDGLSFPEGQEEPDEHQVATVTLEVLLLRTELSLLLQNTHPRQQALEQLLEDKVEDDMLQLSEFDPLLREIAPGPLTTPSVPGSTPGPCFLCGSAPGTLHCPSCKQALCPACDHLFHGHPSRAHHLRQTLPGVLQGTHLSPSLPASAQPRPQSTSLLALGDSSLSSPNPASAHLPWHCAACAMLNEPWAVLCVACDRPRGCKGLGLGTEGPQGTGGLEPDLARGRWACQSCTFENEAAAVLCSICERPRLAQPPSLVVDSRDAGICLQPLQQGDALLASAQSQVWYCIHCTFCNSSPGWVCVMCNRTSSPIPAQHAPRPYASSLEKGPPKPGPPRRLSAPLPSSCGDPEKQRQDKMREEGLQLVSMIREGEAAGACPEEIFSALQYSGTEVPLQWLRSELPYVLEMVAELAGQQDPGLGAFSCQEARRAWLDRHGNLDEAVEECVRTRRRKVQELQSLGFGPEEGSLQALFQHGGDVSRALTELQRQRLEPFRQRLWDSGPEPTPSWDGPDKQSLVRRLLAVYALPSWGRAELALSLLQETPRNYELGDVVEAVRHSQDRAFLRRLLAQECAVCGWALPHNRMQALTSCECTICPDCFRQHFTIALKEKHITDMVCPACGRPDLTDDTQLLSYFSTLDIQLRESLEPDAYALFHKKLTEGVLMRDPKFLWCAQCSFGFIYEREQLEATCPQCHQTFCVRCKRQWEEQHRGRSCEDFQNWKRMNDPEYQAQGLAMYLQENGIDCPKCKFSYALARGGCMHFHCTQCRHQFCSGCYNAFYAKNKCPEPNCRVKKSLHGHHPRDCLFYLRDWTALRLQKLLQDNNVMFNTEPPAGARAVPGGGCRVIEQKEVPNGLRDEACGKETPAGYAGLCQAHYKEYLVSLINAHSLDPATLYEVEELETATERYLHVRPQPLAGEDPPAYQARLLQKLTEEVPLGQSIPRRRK

How the values were obtained:
Test in all cases: log2 fold change, soluble protein after heating vs DMSO (PISA); higher = thermal stabilisation; K562 cells, 10 uM, 30 min; active = over 0.2 and 3.5 SD of the protein, either way, in both replicates (recomputed)
[1] = compound: C/C(=N\NC(=O)C1=CC(=CC=C1)S(=O)(=O)N2CCOCC2)/C3=C(C=CC(=C3)Cl)O
In short: (§1)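 Thermal stability values are relative to control samples and come from duplicates. They are expressed as log2 fold changes. For measurement, K562 cells (2×10^6 cells/mL) received 10 μM compound for 30 min, and aliquots were heated for 3 min over 48°C-58°C, pooled, and extracted at 4°C in PBS with 0.5% NP-40. Soluble protein, the supernatant after 21,000xg for 90 min, was quantified by TMTpro 16plex LC-MS/MS with equalised channel sums.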

[2] = compound: C1=CC2=C(C=CC(=C2)/C=C\3/C(=O)NC(=NCC4=CC=CS4)S3)N=C1
In short: as §1

[3] = compound: C1=CC=C2C(=C1)C3=NNC4=CC=CC(=C43)C2=O
In short: as §1

[4] = compound: C1CCN(C1)C(=O)NC2=CC=CC(=C2)NC3=NC=C(C(=N3)NCCC4=CN=CN4)Br
In short: as §1

[5] = compound: C1CN(CCC1(CC2=CC=C(C=C2)Cl)N)C3=NC=NC4=C3C=CN4
In short: as §1

[6] = compound: CC(=O)c1cnc2ccc(-c3cc(Cl)c(O)c(Cl)c3)nc2c1N[C@H]1CC[C@H](CN(C)C)CC1
In short: as §1

[7] = compound: CC1=C(C2=C(C=C1)C(=O)C3=CC=CC=C3N2CCCN)C
In short: as §1

erlotinib = compound: C#Cc1cccc(Nc2ncnc3cc(OCCOC)c(OCCOC)cc23)c1 [erlotinib]
In short: as §1

[8] = compound: C1=CC(=CC=C1C2=NC3=C(N2)C=C(C=C3)C(=O)N)OC4=CC=C(C=C4)Cl
In short: as §1

[9] = compound: CC(C)C1=C2N=C(C=C(N2N=C1)NCC3=CC=CC=C3)NCCCCCCN
In short: as §1

[10] = compound: C1=CC(=C(C=C1Cl)C2=NC3=NC=CN=C3C(=N2)NC4=CC=NC=C4)F
In short: as §1

[11] = compound: C1=CC=C(C=C1)C2=NC(=C(N2)C3=CC=NC=C3)C4=CC(=C(C=C4)Cl)O
In short: as §1

IRAK-1-4 Inhibitor I = compound: C1COCCN1CCN2C3=CC=CC=C3N=C2NC(=O)C4=CC(=CC=C4)[N+](=O)[O-] [IRAK-1-4 Inhibitor I]
In short: as §1

ralimetinib = compound: CC(C)(C)Cn1c(N)nc2ccc(-c3[nH]c(C(C)(C)C)nc3-c3ccc(F)cc3)nc21 [ralimetinib]
In short: as §1

[12] = compound: CC(C)(O)CC(=O)NCCn1ccc2ncnc(Nc3ccc(Oc4cccc(C(F)(F)F)c4)c(Cl)c3)c21
In short: as §1

[13] = compound: CC(C)C[C@@H](C=O)NC(=O)[C@H](CC(C)C)NC(=O)[C@H](CC(C)C)NC(=O)OCc1ccccc1
In short: as §1

pinometostat = compound: CC(C)N(C[C@H]1O[C@@H](n2cnc3c(N)ncnc32)[C@H](O)[C@@H]1O)[C@H]1C[C@@H](CCc2nc3cc(C(C)(C)C)ccc3[nH]2)C1 [pinometostat]
In short: as §1

[14] = compound: C1=CC2=NC=CN=C2C=C1/C=C/3\C(=O)NC(=O)S3
In short: as §1

ibrutinib = compound: C=CC(=O)N1CCC[C@@H](n2nc(-c3ccc(Oc4ccccc4)cc3)c3c(N)ncnc32)C1 [ibrutinib]
In short: as §1

[15] = compound: CC1=C(C(CC(=O)N1)C2=CC=C(C=C2)C(F)(F)F)C(=O)NC3=C(C=C4C(=C3)C=NN4)F
In short: as §1

Measured: log2 fold change

RPS19 (UniProt M0R2L9)
inactive: [1] -0.054 | [2] -0.246 | [3] 0.732 | [4] 0.522 | [5] -0.095 | [6] -0.083 | [7] -0.177

RPF2 (UniProt Q9H7B2)
inactive: erlotinib 0.267 | [8] -0.001 | [9] 0.104

RPAP2 (UniProt Q8IXW5)
inactive: erlotinib 0.06 | [1] 0.44 | [10] -0.077 | [8] -0.027 | [2] -0.181 | [11] -0.178 | [3] 0.063 | [4] 0.045 | [5] 0.022 | IRAK-1-4 Inhibitor I -0.154 | [6] -0.123 | ralimetinib 0.107 | [12] -0.117 | [9] -0.022 | [13] 0.1 | pinometostat 0.241 | [7] -0.023

RPL31 (UniProt P62899)
inactive: erlotinib -0.145 | [1] -0.174 | [10] -0.444 | [8] 0.055 | [2] -0.052 | [14] -0.02 | [11] -0.047 | [3] -0.011 | [4] 0.087 | [5] -0.215 | IRAK-1-4 Inhibitor I -0.168 | ibrutinib -0.021 | [6] 0.138 | ralimetinib 0.1 | [12] 0.052 | [9] -0.013 | [13] 0.14 | pinometostat 0.273
active: [7] -0.625

RPS6KB2 (UniProt Q9UBS0)
inactive: erlotinib 0.256 | [10] -0.016 | [8] -0.039 | [4] -0.245 | [5] -0.146 | IRAK-1-4 Inhibitor I -0.044 | [12] -0.124 | [9] 0.331 | pinometostat 0.106 | [7] 0.299

RRAS2 isoform 4 (UniProt P62070)
inactive: erlotinib 0.002 | [1] -0.076 | [10] -0.046 | [8] 0.015 | [2] -0.006 | [14] 0.038 | [11] -0.015 | [3] -0.059 | [4] -0.085 | [5] 0.093 | IRAK-1-4 Inhibitor I 0.011 | ibrutinib 0.097 | [6] -0.009 | ralimetinib -0.023 | [12] 0.242 | [9] 0.077 | [13] 0.005 | pinometostat -0.034 | [7] 0.077

RPS6KA1 isoform 2 (UniProt Q15418)
active: [3] -0.377 | ralimetinib -0.429
inactive: erlotinib -0.032 | [1] 0.104 | [10] -0.082 | [8] 0.107 | [2] 0.034 | [14] 0.039 | [11] -0.135 | [4] -0.093 | [5] 0.023 | IRAK-1-4 Inhibitor I -0.013 | ibrutinib -0.062 | [6] -0.167 | [12] -0.092 | [9] -0.164 | [13] 0.059 | pinometostat -0.006 | [7] 0.018

5 consecutive entries already listed, for reference:
RPF2 (UniProt Q9H7B2)
inactive: erlotinib 0.267 | [8] -0.001 | [9] 0.104

RPAP2 (UniProt Q8IXW5)
inactive: erlotinib 0.06 | [1] 0.44 | [10] -0.077 | [8] -0.027 | [2] -0.181 | [11] -0.178 | [3] 0.063 | [4] 0.045 | [5] 0.022 | IRAK-1-4 Inhibitor I -0.154 | [6] -0.123 | ralimetinib 0.107 | [12] -0.117 | [9] -0.022 | [13] 0.1 | pinometostat 0.241 | [7] -0.023

RPL31 (UniProt P62899)
inactive: erlotinib -0.145 | [1] -0.174 | [10] -0.444 | [8] 0.055 | [2] -0.052 | [14] -0.02 | [11] -0.047 | [3] -0.011 | [4] 0.087 | [5] -0.215 | IRAK-1-4 Inhibitor I -0.168 | ibrutinib -0.021 | [6] 0.138 | ralimetinib 0.1 | [12] 0.052 | [9] -0.013 | [13] 0.14 | pinometostat 0.273
active: [7] -0.625

RPS6KB2 (UniProt Q9UBS0)
inactive: erlotinib 0.256 | [10] -0.016 | [8] -0.039 | [4] -0.245 | [5] -0.146 | IRAK-1-4 Inhibitor I -0.044 | [12] -0.124 | [9] 0.331 | pinometostat 0.106 | [7] 0.299

RRAS2 isoform 4 (UniProt P62070)
inactive: erlotinib 0.002 | [1] -0.076 | [10] -0.046 | [8] 0.015 | [2] -0.006 | [14] 0.038 | [11] -0.015 | [3] -0.059 | [4] -0.085 | [5] 0.093 | IRAK-1-4 Inhibitor I 0.011 | ibrutinib 0.097 | [6] -0.009 | ralimetinib -0.023 | [12] 0.242 | [9] 0.077 | [13] 0.005 | pinometostat -0.034 | [7] 0.077

The list continues.

RPS6KA3 (UniProt P51812)
active: [3] -0.345 | ralimetinib -0.359
inactive: erlotinib -0.024 | [1] 0.08 | [10] 0.018 | [8] 0.072 | [14] 0.061 | [11] -0.043 | [4] -0.085 | [5] -0.017 | IRAK-1-4 Inhibitor I 0.03 | ibrutinib -0.048 | [6] -0.194 | [12] -0.061 | [9] -0.076 | [13] 0.121 | pinometostat 0.011 | [7] 0.001

RPL7L1 (UniProt Q6DKI1)
inactive: [10] -0.628 | [14] 0.053 | [11] -0.051 | IRAK-1-4 Inhibitor I 0.239 | ibrutinib 0.103 | ralimetinib 0.23 | [12] 0.162 | [13] 0.368 | pinometostat 0.259 | [15] 0.048

RRP1 (UniProt P56182)
inactive: erlotinib 0.011 | [8] 0.24 | [11] -0.198 | IRAK-1-4 Inhibitor I -0.159 | ralimetinib 0.092 | [9] 0.099 | [13] 0.265 | pinometostat 0.082

RNF41 (UniProt Q9H4P4)
inactive: [1] 0.043 | [2] -0.074 | [14] -0.146 | [3] -0.002 | ibrutinib -0.104 | [6] 0.082

RPS5 (UniProt P46782)
inactive: erlotinib -0.149 | [1] -0.087 | [10] -0.193 | [8] 0.038 | [2] -0.047 | [14] -0.045 | [11] -0.003 | [3] 0.008 | [4] 0.022 | [5] -0.125 | IRAK-1-4 Inhibitor I -0.137 | ibrutinib 0.045 | [6] 0.083 | ralimetinib 0.103 | [12] 0 | [9] -0.015 | [13] -0.019 | pinometostat 0.091
active: [7] -0.551

RPP30 (UniProt Q5VU11)
inactive: erlotinib -0.443 | [8] -0.015 | [14] 0.068 | [11] 0.029 | IRAK-1-4 Inhibitor I -0.052 | ibrutinib 0 | ralimetinib -0.042 | [9] 0.011 | [13] 0.008 | pinometostat 0.047 | [15] 0.209

RPGR (UniProt Q92834)
inactive: [10] 0.068 | [4] -0.343 | [5] 0.293 | [12] -0.117 | [7] 0.113

RRN3 (UniProt Q9NYV6)
inactive: erlotinib 0.093 | [10] -0.668 | [8] 0.162 | IRAK-1-4 Inhibitor I -0.037 | [12] -0.218 | [9] 0.044 | pinometostat 0.007

RNF26 (UniProt Q9BY78)
inactive: [14] -0.08 | [11] -0.073 | ibrutinib -0.033 | ralimetinib 0.095 | [13] 0.281

RNF4 (UniProt P78317)
inactive: erlotinib 0 | [1] -0.325 | [10] 0.075 | [8] 0.237 | [2] -0.116 | [14] -0.22 | [3] -0.076 | [4] -0.197 | [5] 0.045 | ibrutinib 0.002 | [6] 0.077 | [12] -0.037 | [9] -0.14 | [15] 0.087 | [7] -0.379

RPS6KA5 (UniProt O75582)
inactive: erlotinib 0.239 | [10] -0.079 | [8] -0.234 | [11] -0.091 | IRAK-1-4 Inhibitor I 0.071 | ralimetinib -0.11 | [12] -0.042 | [9] -0.218 | [13] 0.069 | pinometostat -0.431

RPA1 (UniProt P27694)
inactive: erlotinib 0.003 | [1] 0.07 | [10] 0.147 | [8] 0.008 | [2] -0.005 | [14] 0.003 | [11] 0.027 | [3] 0.075 | [4] -0.013 | [5] -0.021 | IRAK-1-4 Inhibitor I -0.026 | ibrutinib -0.022 | [6] -0.03 | ralimetinib -0.008 | [12] -0.053 | [9] -0.019 | [13] -0.027 | pinometostat -0.021 | [7] 0.202

RPL22L1 (UniProt Q6P5R6)
inactive: erlotinib -0.051 | [10] -0.366 | [8] 0.013 | IRAK-1-4 Inhibitor I 0.052 | [12] 0.381 | [9] -0.202 | pinometostat 0.009

RNF31 (UniProt Q96EP0)
inactive: erlotinib 0.111 | [10] -0.19 | [8] 0.092 | [4] -0.125 | [5] -0.045 | [12] -0.076 | [9] 0.031 | [15] 0.084 | [7] 0.028
